This is an account of results in paper PMC5613149.

Sequences of proteins named here, by UniProt entry; tags and fusion partners are left off.
UniProt P20339: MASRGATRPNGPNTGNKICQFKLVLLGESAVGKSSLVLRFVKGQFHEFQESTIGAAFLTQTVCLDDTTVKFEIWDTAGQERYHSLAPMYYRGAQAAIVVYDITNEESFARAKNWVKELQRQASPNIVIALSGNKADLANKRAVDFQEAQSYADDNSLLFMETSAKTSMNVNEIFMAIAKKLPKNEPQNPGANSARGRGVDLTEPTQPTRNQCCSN
UniProt P31387: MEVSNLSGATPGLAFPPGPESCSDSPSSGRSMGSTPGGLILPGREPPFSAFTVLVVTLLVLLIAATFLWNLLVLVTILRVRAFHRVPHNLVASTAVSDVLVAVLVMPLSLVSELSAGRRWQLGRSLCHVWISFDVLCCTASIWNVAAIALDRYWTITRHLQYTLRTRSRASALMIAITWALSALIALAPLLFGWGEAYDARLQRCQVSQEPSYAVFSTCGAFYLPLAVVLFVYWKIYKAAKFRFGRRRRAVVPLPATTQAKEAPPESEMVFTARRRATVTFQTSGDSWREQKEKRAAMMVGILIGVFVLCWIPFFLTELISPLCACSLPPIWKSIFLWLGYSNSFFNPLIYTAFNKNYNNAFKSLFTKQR

These are yes or no findings as the source states them, for the method shown. Binding seen in cells or lysates may run through a third protein.

For the assay, the target named is GFP-rab5 (UniProt P20339). The experiment in a line: FRET or BRET; acceptor-photobleaching FRET (abFRET) microscopy; N1E-115 cells co-transfected with equimolar amounts of the two plasmids, fixed with 2% paraformaldehyde for 20 min; GFP donor, mRFP/mCherry acceptor bleached in regions of interest; apparent FRET efficiency (Fapp).

In the case of “serotonin receptor subtype 5b, mCherry fusion (5-ht5b-mCherry) (from UniProt P31387 1-370)”, the binding result was “no binding”.
